This is an account of results in US20260240957 (published 2026).

The nature of the series: general procedure: Fmoc solid-phase peptide synthesis; Rink Amide MBHA resin. To be noted: whole synthesis.

As to “Ala^1-Val-Ser-Glu-His^5-Gln-Leu-Leu-His-Asp^10-Lys-Gly-Lys-Ser-Ile^15-Gln-Asp-Leu-Arg-Arg^20-Arg-Glu-Leu-Leu-Glu^25-Lys-Leu-Leu-Aib-Lys^30-Leu-His-Thr-Ala^34-NH2”, the difficulty met result is recorded as “Gln^16 deletion impurity comprises up to 49% by weight of the crude abaloparatide product”.
